Measurements reported in patent US20250345370A1, “MICROBIAL LIBERATION OF N-METHYLSEROTONIN FROM ORANGE FIBER” (Washington University, priority 2022, published 2025).
This continues a long series; more values of the same kind are listed elsewhere.

Tested on: colon gene expression
Assay: RNA-Seq of colonic tissue of germ-free mice treated with 50 mg/kg/d N-methylserotonin
Assay type: in vivo, germ-free C57BL/6J mice
Conditions: colon

Compound CNCCc1c[nH]c2ccc(O)cc12 [N-methylserotonin] has a log2 fold-change (gene Mrpl42) of −0.30, a log2 fold-change (gene Ms4a5) of 3.19 and a log2 fold-change (gene Ms4a8a) of −0.51. For the same compound, the log2 fold-change (gene Ms4a12) was −0.62, the log2 fold-change (gene Mt2) was 0.75 and the log2 fold-change (gene Mtcl1) was 0.66. It also gave a log2 fold-change (gene Muc13) of −0.47, a log2 fold-change (gene Mvb12b) of 0.38 and a log2 fold-change (gene Myo18b) of 1.18. It also gave a log2 fold-change (gene Myocd) of 0.40, a log2 fold-change (gene Myom1) of 0.49 and a log2 fold-change (gene Naip1) of −0.44. For the same compound, the log2 fold-change (gene Nat8l) was 0.72, the log2 fold-change (gene Nbea) was 0.35 and the log2 fold-change (gene Ncapg) was −0.60. It also gave a log2 fold-change (gene Ncdn) of 0.51, a log2 fold-change (gene Ndc1) of −0.42 and a log2 fold-change (gene Ndrg1) of 0.33. It also gave a log2 fold-change (gene Ndrg2) of −0.33, a log2 fold-change (gene Ndufa10) of −0.26 and a log2 fold-change (gene Ndufv2) of −0.30. For the same compound, the log2 fold-change (gene Neat1) was 0.33, the log2 fold-change (gene Nectin3) was −0.25 and the log2 fold-change (gene Nedd9) was −0.33. The log2 fold-change (gene Neu3) was −1.04, the log2 fold-change (gene Nfix) was 0.64 and the log2 fold-change (gene Nkd1) was 0.80. For the same compound, the log2 fold-change (gene Nlrp1b) was −0.32, the log2 fold-change (gene Nmnat2) was 0.68 and the log2 fold-change (gene Nox1) was −0.91. For the same compound, the log2 fold-change (gene Npnt) was 0.51, the log2 fold-change (gene Nr1d2) was 0.42 and the log2 fold-change (gene Nt5c3) was −0.62. It also gave a log2 fold-change (gene Nt5e) of −0.52, a log2 fold-change (gene Ntn1) of 0.37 and a log2 fold-change (gene Nupl1) of −0.30. It also gave a log2 fold-change (gene Nupr1) of 0.41, a log2 fold-change (gene Nusap1) of −0.49 and a log2 fold-change (gene Nxpe3) of 1.84. The log2 fold-change (gene Nxpe4) was −0.70, the log2 fold-change (gene Nynrin) was 0.50 and the log2 fold-change (gene Oas1a) was −0.42. It also gave a log2 fold-change (gene Oas1g) of −0.48, a log2 fold-change (gene Oasl2) of −0.66 and a log2 fold-change (gene Oat) of −0.31. The log2 fold-change (gene Olfml3) was 0.45, the log2 fold-change (gene Opcml) was 0.79 and the log2 fold-change (gene Orm3) was 0.01. The log2 fold-change (gene Osbp2) was 1.55, the log2 fold-change (gene P4ha2) was 0.45 and the log2 fold-change (gene Pacs1) was 0.44. It also gave a log2 fold-change (gene Pak3) of 0.88, a log2 fold-change (gene Pam) of −0.50 and a log2 fold-change (gene Pappa) of 0.60. For the same compound, the log2 fold-change (gene Pate6) was 0.01, the log2 fold-change (gene Pbsn) was 10.71 and the log2 fold-change (gene Pde7a) was −0.63. For the same compound, the log2 fold-change (gene Pdk4) was −0.81, the log2 fold-change (gene Pdxdc1) was −0.25 and the log2 fold-change (gene Peli3) was 0.74. The log2 fold-change (gene Per3) was 1.17, the log2 fold-change (gene Pfkp) was −0.28 and the log2 fold-change (gene Pglyrp1) was −0.45. For the same compound, the log2 fold-change (gene Phldb1) was 0.34, the log2 fold-change (gene Pigf) was −0.48 and the log2 fold-change (gene Pign) was −0.29. For the same compound, the log2 fold-change (gene Pigr) was −0.44, the log2 fold-change (gene Pitpnm2) was 0.48 and the log2 fold-change (gene Pla2g4f) was −0.87. It also gave a log2 fold-change (gene Pla2g10) of −0.47, a log2 fold-change (gene Plbd1) of −0.62 and a log2 fold-change (gene Pld3) of 0.35. For the same compound, the log2 fold-change (gene Plekha8) was −0.32, the log2 fold-change (gene Plekhb2) was −0.31 and the log2 fold-change (gene Plekhg5) was 0.49. The log2 fold-change (gene Plpp3) was 0.31, the log2 fold-change (gene Plscr3) was 0.55 and the log2 fold-change (gene Pnck) was 0.85. For the same compound, the log2 fold-change (gene Pnkd) was 0.53, the log2 fold-change (gene Pnliprp1) was 3.29 and the log2 fold-change (gene Pnp) was −0.41. It also gave a log2 fold-change (gene Pnpt1) of −0.39, a log2 fold-change (gene Pof1b) of −0.43 and a log2 fold-change (gene Pola1) of −0.55. It also gave a log2 fold-change (gene Ppih) of −0.46, a log2 fold-change (gene Ppp1r3b) of −0.53 and a log2 fold-change (gene Ppp1r12b) of 0.27. For the same compound, the log2 fold-change (gene Ppp4r1l-ps) was 0.68, the log2 fold-change (gene Ppy) was −1.36 and the log2 fold-change (gene Prdx1) was −0.26. It also gave a log2 fold-change (gene Prkn) of 1.09, a log2 fold-change (gene Prodh) of 0.57 and a log2 fold-change (gene Prom2) of 0.01. It also gave a log2 fold-change (gene Prr12) of 0.55, a log2 fold-change (gene Prrx1) of 1.42 and a log2 fold-change (gene Ptprs) of 0.43. The log2 fold-change (gene Pycr1) was 0.88, the log2 fold-change (gene Pyy) was −0.64 and the log2 fold-change (gene Qpctl) was 0.46. The log2 fold-change (gene R3hcc1) was 0.43, the log2 fold-change (gene Rab11fip3) was 0.48 and the log2 fold-change (gene Rbfox3) was 2.79. For the same compound, the log2 fold-change (gene Rdh16) was −0.68, the log2 fold-change (gene Ren1) was 8.82 and the log2 fold-change (gene Rep15) was −0.41. It also gave a log2 fold-change (gene Retreg1) of −0.40, a log2 fold-change (gene Rhbdf1) of 0.47 and a log2 fold-change (gene Rimklb) of 2.24. For the same compound, the log2 fold-change (gene Rims4) was −0.82, the log2 fold-change (gene Rnase1) was 3.42 and the log2 fold-change (gene Rnf125) was −0.73. The log2 fold-change (gene Rorb) was 1.88, the log2 fold-change (gene Rrm1) was −0.42 and the log2 fold-change (gene Rsad2) was −0.75. The log2 fold-change (gene Rusc2) was 0.43, the log2 fold-change (gene Samd5) was 0.41 and the log2 fold-change (gene Samd9l) was −0.34. For the same compound, the log2 fold-change (gene Sdc3) was 0.40, the log2 fold-change (gene Sdk2) was 0.72 and the log2 fold-change (gene Selenop) was −0.57. For the same compound, the log2 fold-change (gene Serpina9) was −1.18, the log2 fold-change (gene Setd1b) was 0.49 and the log2 fold-change (gene Sh3bp4) was 0.55. The log2 fold-change (gene Sh3gl2) was 0.49, the log2 fold-change (gene Shisa4) was 2.78 and the log2 fold-change (gene Skil) was −0.39. It also gave a log2 fold-change (gene Slc1a1) of −0.59, a log2 fold-change (gene Slc2a5) of 0.65 and a log2 fold-change (gene Slc2a13) of −0.44. For the same compound, the log2 fold-change (gene Slc5a3) was −0.45, the log2 fold-change (gene Slc5a8) was −0.56 and the log2 fold-change (gene Slc6a6) was 0.32. It also gave a log2 fold-change (gene Slc6a14) of −0.32, a log2 fold-change (gene Slc7a1) of 0.52 and a log2 fold-change (gene Slc7a9) of −1.03. The log2 fold-change (gene Slc9a1) was 0.45, the log2 fold-change (gene Slc15a1) was −0.63 and the log2 fold-change (gene Slc16a2) was 0.73. It also gave a log2 fold-change (gene Slc16a7) of 1.26, a log2 fold-change (gene Slc16a12) of −0.94 and a log2 fold-change (gene Slc17a4) of −0.39. For the same compound, the log2 fold-change (gene Slc25a5) was −0.25, the log2 fold-change (gene Slc25a20) was −0.31 and the log2 fold-change (gene Slc25a22) was 0.52. It also gave a log2 fold-change (gene Slc25a23) of 0.54, a log2 fold-change (gene Slc25a29) of 1.25 and a log2 fold-change (gene Slc25a46) of −0.29. It also gave a log2 fold-change (gene Slc30a2) of 3.33, a log2 fold-change (gene Slc30a4) of −0.26 and a log2 fold-change (gene Slc34a2) of −1.07. The log2 fold-change (gene Slc35a3) was −0.35, the log2 fold-change (gene Slc40a1) was −0.69 and the log2 fold-change (gene Slc41a1) was 0.38. It also gave a log2 fold-change (gene Slc44a1) of −0.34, a log2 fold-change (gene Slc46a1) of −0.65 and a log2 fold-change (gene Slc52a2) of 0.46. For the same compound, the log2 fold-change (gene Slco4c1) was 5.14, the log2 fold-change (gene Slit3) was 0.45 and the log2 fold-change (gene Smc2) was −0.44. It also gave a log2 fold-change (gene Smchd1) of −0.27, a log2 fold-change (gene Smim1) of 1.51 and a log2 fold-change (gene Smpdl3a) of −0.42.
